From publication PMC10759339, “Expression of NELL2/NICOL-ROS1 lumicrine signaling-related molecules in the human male reproductive tract” (Reproductive Biology and Endocrinology : RB&E, 2024)
These are yes or no findings as the source states them, for the method shown. Binding seen in cells or lysates may run through a third protein. Some results given as binding are weak or reduced against the parent protein; the word gives no strength. For part of these data: Where a sequence is shown, tags or fusion partners need not be part of it.

The chains behind the UniProt entries cited, without tags or fusion partners. Residues count along the entry.
UniProt P02769, residues 25-607: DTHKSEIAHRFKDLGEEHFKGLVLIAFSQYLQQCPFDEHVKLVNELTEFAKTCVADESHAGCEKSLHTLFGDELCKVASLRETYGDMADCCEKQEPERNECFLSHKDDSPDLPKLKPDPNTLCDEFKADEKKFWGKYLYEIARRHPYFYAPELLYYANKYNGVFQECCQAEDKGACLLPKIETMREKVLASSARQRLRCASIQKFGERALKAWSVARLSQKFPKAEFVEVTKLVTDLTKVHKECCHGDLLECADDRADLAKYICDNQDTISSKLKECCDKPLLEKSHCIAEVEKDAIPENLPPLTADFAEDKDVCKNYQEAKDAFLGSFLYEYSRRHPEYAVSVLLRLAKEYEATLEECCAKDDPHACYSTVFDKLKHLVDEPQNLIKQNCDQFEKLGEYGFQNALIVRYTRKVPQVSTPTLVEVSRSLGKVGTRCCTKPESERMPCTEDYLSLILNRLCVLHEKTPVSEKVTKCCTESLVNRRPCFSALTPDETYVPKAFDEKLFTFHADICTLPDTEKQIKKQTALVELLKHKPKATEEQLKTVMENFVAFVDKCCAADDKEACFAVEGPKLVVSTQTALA
UniProt Q99435, residues 22-816: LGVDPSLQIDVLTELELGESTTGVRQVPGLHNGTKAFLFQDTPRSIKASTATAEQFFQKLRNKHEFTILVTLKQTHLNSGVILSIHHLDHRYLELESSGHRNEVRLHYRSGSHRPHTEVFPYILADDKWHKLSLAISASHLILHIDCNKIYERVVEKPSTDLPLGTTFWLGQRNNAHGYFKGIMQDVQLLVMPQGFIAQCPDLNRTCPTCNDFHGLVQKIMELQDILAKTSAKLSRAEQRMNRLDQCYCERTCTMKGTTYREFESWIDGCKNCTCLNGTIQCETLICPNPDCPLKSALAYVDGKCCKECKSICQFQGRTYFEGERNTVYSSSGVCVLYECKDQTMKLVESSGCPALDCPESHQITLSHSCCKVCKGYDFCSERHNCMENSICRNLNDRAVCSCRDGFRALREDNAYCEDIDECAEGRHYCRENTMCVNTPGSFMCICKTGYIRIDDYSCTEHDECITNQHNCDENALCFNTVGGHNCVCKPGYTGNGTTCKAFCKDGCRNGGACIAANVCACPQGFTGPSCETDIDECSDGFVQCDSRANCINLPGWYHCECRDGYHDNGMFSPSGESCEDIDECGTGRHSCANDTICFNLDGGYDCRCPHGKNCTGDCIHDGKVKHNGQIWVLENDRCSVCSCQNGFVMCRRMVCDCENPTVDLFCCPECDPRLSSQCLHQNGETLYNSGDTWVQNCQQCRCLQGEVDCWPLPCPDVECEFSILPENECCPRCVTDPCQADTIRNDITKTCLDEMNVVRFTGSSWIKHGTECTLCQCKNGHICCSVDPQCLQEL
UniProt P08922, residues 28-1859: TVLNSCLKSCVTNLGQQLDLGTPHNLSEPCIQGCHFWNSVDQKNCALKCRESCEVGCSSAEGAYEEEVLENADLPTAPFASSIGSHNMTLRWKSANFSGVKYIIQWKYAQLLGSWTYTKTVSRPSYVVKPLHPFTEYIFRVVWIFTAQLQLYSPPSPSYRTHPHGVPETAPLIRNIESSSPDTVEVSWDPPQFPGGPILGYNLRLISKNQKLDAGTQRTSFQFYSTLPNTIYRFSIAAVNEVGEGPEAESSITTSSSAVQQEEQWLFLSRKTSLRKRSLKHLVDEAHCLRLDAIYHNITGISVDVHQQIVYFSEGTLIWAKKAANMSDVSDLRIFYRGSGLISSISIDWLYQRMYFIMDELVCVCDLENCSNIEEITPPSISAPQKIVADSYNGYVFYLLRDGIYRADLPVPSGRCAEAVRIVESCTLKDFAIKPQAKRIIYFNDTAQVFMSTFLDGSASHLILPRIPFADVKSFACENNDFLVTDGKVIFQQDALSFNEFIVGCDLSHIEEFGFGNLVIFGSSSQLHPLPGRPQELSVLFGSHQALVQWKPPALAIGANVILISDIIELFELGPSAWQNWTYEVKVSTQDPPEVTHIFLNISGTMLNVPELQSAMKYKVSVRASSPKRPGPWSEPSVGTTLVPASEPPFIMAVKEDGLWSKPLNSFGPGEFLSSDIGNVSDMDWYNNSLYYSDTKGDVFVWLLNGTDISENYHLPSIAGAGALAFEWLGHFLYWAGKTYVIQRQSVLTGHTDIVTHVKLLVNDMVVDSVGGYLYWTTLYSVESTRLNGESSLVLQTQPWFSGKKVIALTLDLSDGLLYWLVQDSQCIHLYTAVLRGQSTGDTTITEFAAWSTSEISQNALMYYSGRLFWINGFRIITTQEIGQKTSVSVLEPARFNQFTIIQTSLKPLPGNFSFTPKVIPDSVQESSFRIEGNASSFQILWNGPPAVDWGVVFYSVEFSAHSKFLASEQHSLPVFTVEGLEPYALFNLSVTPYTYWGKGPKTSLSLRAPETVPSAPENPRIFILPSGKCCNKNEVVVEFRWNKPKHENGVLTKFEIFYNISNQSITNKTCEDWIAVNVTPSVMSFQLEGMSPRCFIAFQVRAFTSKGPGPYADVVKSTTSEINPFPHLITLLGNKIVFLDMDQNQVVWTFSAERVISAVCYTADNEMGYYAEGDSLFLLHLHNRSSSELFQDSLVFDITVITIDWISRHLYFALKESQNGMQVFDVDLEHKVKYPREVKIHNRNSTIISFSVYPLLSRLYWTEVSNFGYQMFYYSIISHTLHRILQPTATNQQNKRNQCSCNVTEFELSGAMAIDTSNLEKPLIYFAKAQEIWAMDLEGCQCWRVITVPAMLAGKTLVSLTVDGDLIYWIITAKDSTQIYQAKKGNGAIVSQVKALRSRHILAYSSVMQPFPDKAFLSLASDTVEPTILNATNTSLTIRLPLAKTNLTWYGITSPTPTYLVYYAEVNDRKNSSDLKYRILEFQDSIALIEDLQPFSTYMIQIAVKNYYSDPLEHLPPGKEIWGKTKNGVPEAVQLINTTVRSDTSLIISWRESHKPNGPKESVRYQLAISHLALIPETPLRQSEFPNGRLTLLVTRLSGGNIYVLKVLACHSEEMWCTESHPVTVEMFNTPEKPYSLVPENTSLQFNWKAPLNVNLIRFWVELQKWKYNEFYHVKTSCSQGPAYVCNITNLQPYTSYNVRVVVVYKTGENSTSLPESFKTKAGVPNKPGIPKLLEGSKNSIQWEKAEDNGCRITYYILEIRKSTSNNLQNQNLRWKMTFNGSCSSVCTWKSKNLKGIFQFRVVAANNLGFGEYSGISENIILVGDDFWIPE

How the values were obtained:
Assay in all cases: pull-down; 100 µg of each purified protein conjugated to 25 µL NHS-activated agarose; mixed with lysate (1 mL of 1 mg protein/mL) of 293-F cells expressing ROS1, overnight at 4 °C, washed three times with lysis buffer; immunoblot with anti-Rho1D4; only the target purified
[1] = biological target: bovine serum albumin (BSA) (bovine) (UniProt P02769)
[2] = biological target: C-terminally 6×His-tagged recombinant human NELL2 protein (human) (UniProt Q99435)
[3] = biological target: T1, C-terminally 6×His-tagged human NICOL protein (human) (UniProt Q5BLP8)
T1 sequence: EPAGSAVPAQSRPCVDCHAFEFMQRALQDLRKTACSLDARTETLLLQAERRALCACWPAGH

For “C-terminally 8xHis and Rho1D4-tagged human ROS1 ectodomain (from UniProt P08922 28-1859) (receptor)”, the binding [1] was “no binding”, the binding [2] was “binds” and the binding [3] was “no binding”.
